These are yes or no findings as the source states them, for the method shown. Binding seen in cells or lysates may run through a third protein. Here binding means that the protein was enriched with, or labelled near, the bait; the list need not be complete.
Biological target: Coronin 1A (CORO1A), endogenous in MDA-MB-231 cells (human (endogenous in MDA-MB-231)) (UniProt P31146)
Assay: affinity purification with mass spectrometry; MDA-MB-231 cells, control or AB (0.2 uM, 24 h); lysate incubated with anti-CORO1A overnight at 4°C, Protein A beads, gel bands analysed by LC-MS/MS

Chains of the proteins cited; added tags and fusions are not shown.
UniProt P31146: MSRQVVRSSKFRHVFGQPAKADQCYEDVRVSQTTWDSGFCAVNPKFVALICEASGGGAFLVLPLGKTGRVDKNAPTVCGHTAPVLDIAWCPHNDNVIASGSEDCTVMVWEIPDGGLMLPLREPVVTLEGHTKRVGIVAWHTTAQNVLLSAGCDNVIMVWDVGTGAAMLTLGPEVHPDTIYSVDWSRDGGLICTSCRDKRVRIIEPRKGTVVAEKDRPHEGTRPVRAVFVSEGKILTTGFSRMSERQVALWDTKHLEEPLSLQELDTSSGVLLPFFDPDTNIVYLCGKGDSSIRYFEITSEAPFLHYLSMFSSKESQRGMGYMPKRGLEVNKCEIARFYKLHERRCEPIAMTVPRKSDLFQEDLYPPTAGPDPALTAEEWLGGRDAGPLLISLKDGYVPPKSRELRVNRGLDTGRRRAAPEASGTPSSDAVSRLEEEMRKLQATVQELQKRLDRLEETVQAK

binding: binds
B1: TRIM4, endogenous in MDA-MB-231 cells (protein, UniProt Q9C037 1-500)
chain: MEAEDIQEELTCPICLDYFQDPVSIECGHNFCRGCLHRNWAPGGGPFPCPECRHPSAPAALRPNWALARLTEKTQRRRLGPVPPGLCGRHWEPLRLFCEDDQRPVCLVCRESQEHQTHAMAPIDEAFESYRTGNFDIHVDEWKRRLIRLLLYHFKQEEKLLKSQRNLVAKMKKVMHLQDVEVKNATQWKDKIKSQRMRISTEFSKLHNFLVEEEDLFLQRLNKEEEETKKKLNENTLKLNQTIASLKKLILEVGEKSQAPTLELLQNPKEVLTRSEIQDVNYSLEAVKVKTVCQIPLMKEMLKRFQVAVNLAEDTAHPKLVFSQEGRYVKNTASASSWPVFSSAWNYFAGWRNPQKTAFVERFQHLPCVLGKNVFTSGKHYWEVESRDSLEVAVGVCREDVMGITDRSKMSPDVGIWAIYWSAAGYWPLIGFPGTPTQQEPALHRVGVYLDRGTGNVSFYSAVDGVHLHTFSCSSVSRLRPFFWLSPLASLVIPPVTDRK
